Laboratory results: PMC6451326
Results are given in words; binding and its absence hold for the method and conditions named. Binding seen in cells or lysates may run through a third protein. Some binding calls cover weakened binding; strength is not graded here. For some assays here: Sequences can lack the tags named with a protein.

Protein sequences, listed by entry. Tags and fused reporters are not part of them.
UniProt Q16637: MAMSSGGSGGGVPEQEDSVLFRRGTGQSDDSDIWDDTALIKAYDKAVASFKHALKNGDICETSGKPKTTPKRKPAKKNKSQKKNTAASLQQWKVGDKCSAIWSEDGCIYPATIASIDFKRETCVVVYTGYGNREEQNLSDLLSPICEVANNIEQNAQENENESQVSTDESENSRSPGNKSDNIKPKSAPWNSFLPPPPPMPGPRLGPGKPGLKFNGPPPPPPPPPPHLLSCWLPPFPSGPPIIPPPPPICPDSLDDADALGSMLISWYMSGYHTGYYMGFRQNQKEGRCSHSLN

T1: FLAG-tagged DGCR8 (UniProt Q8WYQ5)
T1 sequence: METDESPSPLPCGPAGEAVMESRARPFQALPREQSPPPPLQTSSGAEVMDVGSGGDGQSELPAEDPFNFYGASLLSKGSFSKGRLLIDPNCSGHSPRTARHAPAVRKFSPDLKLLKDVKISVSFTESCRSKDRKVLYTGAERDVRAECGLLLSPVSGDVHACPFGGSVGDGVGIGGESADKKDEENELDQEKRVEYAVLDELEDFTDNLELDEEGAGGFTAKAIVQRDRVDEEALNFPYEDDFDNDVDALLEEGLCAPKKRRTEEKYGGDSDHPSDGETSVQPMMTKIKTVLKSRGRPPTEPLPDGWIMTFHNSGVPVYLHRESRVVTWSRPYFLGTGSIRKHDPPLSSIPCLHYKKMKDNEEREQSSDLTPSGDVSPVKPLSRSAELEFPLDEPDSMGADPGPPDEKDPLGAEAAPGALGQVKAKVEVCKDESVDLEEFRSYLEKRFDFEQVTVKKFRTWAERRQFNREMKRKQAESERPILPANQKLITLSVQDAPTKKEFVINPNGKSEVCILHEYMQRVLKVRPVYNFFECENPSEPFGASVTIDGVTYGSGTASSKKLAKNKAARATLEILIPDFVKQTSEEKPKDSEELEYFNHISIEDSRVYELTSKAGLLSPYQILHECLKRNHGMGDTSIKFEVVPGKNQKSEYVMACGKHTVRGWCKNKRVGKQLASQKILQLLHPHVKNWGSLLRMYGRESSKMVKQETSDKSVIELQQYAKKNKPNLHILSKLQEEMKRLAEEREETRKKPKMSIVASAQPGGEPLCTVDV

B1: Drosha (enzyme, UniProt Q9NRR4 1-1374)
chain: MMQGNTCHRMSFHPGRGCPRGRGGHGARPSAPSFRPQNLRLLHPQQPPVQYQYEPPSAPSTTFSNSPAPNFLPPRPDFVPFPPPMPPSAQGPLPPCPIRPPFPNHQMRHPFPVPPCFPPMPPPMPCPNNPPVPGAPPGQGTFPFMMPPPSMPHPPPPPVMPQQVNYQYPPGYSHHNFPPPSFNSFQNNPSSFLPSANNSSSPHFRHLPPYPLPKAPSERRSPERLKHYDDHRHRDHSHGRGERHRSLDRRERGRSPDRRRQDSRYRSDYDRGRTPSRHRSYERSRERERERHRHRDNRRSPSLERSYKKEYKRSGRSYGLSVVPEPAGCTPELPGEIIKNTDSWAPPLEIVNHRSPSREKKRARWEEEKDRWSDNQSSGKDKNYTSIKEKEPEETMPDKNEEEEEELLKPVWIRCTHSENYYSSDPMDQVGDSTVVGTSRLRDLYDKFEEELGSRQEKAKAARPPWEPPKTKLDEDLESSSESECESDEDSTCSSSSDSEVFDVIAEIKRKKAHPDRLHDELWYNDPGQMNDGPLCKCSAKARRTGIRHSIYPGEEAIKPCRPMTNNAGRLFHYRITVSPPTNFLTDRPTVIEYDDHEYIFEGFSMFAHAPLTNIPLCKVIRFNIDYTIHFIEEMMPENFCVKGLELFSLFLFRDILELYDWNLKGPLFEDSPPCCPRFHFMPRFVRFLPDGGKEVLSMHQILLYLLRCSKALVPEEEIANMLQWEELEWQKYAEECKGMIVTNPGTKPSSVRIDQLDREQFNPDVITFPIIVHFGIRPAQLSYAGDPQYQKLWKSYVKLRHLLANSPKVKQTDKQKLAQREEALQKIRQKNTMRREVTVELSSQGFWKTGIRSDVCQHAMMLPVLTHHIRYHQCLMHLDKLIGYTFQDRCLLQLAMTHPSHHLNFGMNPDHARNSLSNCGIRQPKYGDRKVHHMHMRKKGINTLINIMSRLGQDDPTPSRINHNERLEFLGDAVVEFLTSVHLYYLFPSLEEGGLATYRTAIVQNQHLAMLAKKLELDRFMLYAHGPDLCRESDLRHAMANCFEALIGAVYLEGSLEEAKQLFGRLLFNDPDLREVWLNYPLHPLQLQEPNTDRQLIETSPVLQKLTEFEEAIGVIFTHVRLLARAFTLRTVGFNHLTLGHNQRMEFLGDSIMQLVATEYLFIHFPDHHEGHLTLLRSSLVNNRTQAKVAEELGMQEYAITNDKTKRPVALRTKTLADLLESFIAALYIDKDLEYVHTFMNVCFFPRLKEFILNQDWNDPKSQLQQCCLTLRTEGKEPDIPLYKTLQTVGPSHARTYTVAVYFKGERIGCGKGPSIQQAEMGAAMDALEKYNFPQMAHQKRFIERKYRQELKEMRWEREHQEREPDETEDIKK

Legend:
FLAG-tagged DGCR8 = target: T1, FLAG-tagged DGCR8; experiment: co-IP; HeLa cells transfected with FLAG-DGCR8 and lysed in KCl lysis buffer (20 mM Tris pH 8.0, 100 mM KCl, 0.2 mM EDTA); IP with 3 ug FLAG or control mouse antibody, protein G beads, three washes with KCl lysis buffer, western blot
[1] = target: survival of motor neuron protein (SMN) (human (endogenous in HeLa)) (UniProt Q16637); experiment: co-IP; HeLa RIPA lysate incubated with 4 ug mouse anti-SMN or control mouse antibody, captured on protein G beads, washed five times with RIPA, western blot; for coilin the lysate came from untreated cells or cells treated with 9 uM etoposide for 48 h

| Molecule | binding (FLAG-tagged DGCR8) | binding [1] |
| --- | --- | --- |
| survival of motor neuron protein (SMN) (from UniProt Q16637 1-294) | binds |  |
| B1 |  | binds weakly |
